PubChem BioAssay AID1159597 – NIAID | 2016
Purpose: 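Which TLR pathway components are needed for LPS-driven TNF promoter activity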. Cell system: human THP-1 B5 reporter clone (monocytic leukaemia line), PMA-differentiated to macrophage-like cells. Reagents: single siRNA against human genes. Time to read-out: LPS for 4 h before read-out; assayed 48 to 72 h after siRNA transfection. Challenge: LPS (Salmonella minnesota R595) for 4 h; concentration not given. Read-out: 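After 4 h LPS, firefly TNF promoter luciferase over renilla, as a plate median/MAD robust z-score averaged across replicates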. Scale: TNF reporter z-score: higher = stronger TNF promoter activity after LPS. Call rule: In these data the active calls have TNF reporter z-score, replicate mean at about -1.5 or lower, or at about 1.53 or higher. Calls: active = clear shift in reporter, either direction; inactive = little shift in reporter.
Here is one part, drawn at random, of 756 reagents tested. 140 of all reagents (19%) count as active. 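Calls mark clear shifts in either direction, lowered or raised; calls are per siRNA, gene-level medians over six siRNAs not deposited.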 Reagents against one gene are numbered here. Not stated in the record: the amount of reagent.

no.	target	siRNA no.	TNF reporter z-score, replicate mean	outcome
1	TLR3 (toll like receptor 3)	1	-0.384	inactive
2	TLR3 (toll like receptor 3)	2	-0.887	inactive
3	TLR3 (toll like receptor 3)	3	-0.701	inactive
4	TLR3 (toll like receptor 3)	4	-2.51	active
5	TLR3 (toll like receptor 3)	5	0.0496	inactive
6	TLR3 (toll like receptor 3)	6	0.171	inactive
7	TOLLIP (toll interacting protein)	1	-1.18	inactive
8	TOLLIP (toll interacting protein)	2	-0.538	inactive
9	TOLLIP (toll interacting protein)	3	-0.0064	inactive
10	TOLLIP (toll interacting protein)	4	-2.91	active
11	TOLLIP (toll interacting protein)	5	-0.499	inactive
12	TOLLIP (toll interacting protein)	6	-0.843	inactive
13	TLR1 (toll like receptor 1)	1	-0.076	inactive
14	TLR1 (toll like receptor 1)	2	-0.173	inactive
15	TLR1 (toll like receptor 1)	3	0.72	inactive
16	TLR1 (toll like receptor 1)	4	0.957	inactive
17	TLR1 (toll like receptor 1)	5	-0.108	inactive
18	TLR1 (toll like receptor 1)	6	-0.18	inactive
19	TNF (tumor necrosis factor)	1	-0.518	inactive
20	TNF (tumor necrosis factor)	2	-0.585	inactive
21	TNF (tumor necrosis factor)	3	-0.658	inactive
22	TNF (tumor necrosis factor)	4	-0.336	inactive
23	TNF (tumor necrosis factor)	5	-1.01	inactive
24	TNF (tumor necrosis factor)	6	-0.277	inactive
25	STAT1 (signal transducer and activator of transcription 1)	1	-0.507	inactive
26	STAT1 (signal transducer and activator of transcription 1)	2	-0.57	inactive
27	STAT1 (signal transducer and activator of transcription 1)	3	0.469	inactive
28	STAT1 (signal transducer and activator of transcription 1)	4	-0.319	inactive
29	STAT1 (signal transducer and activator of transcription 1)	5	0.846	inactive
30	STAT1 (signal transducer and activator of transcription 1)	6	-2.66	active
31	IKBKB (inhibitor of nuclear factor kappa B kinase subunit beta)	1	0.0815	inactive
32	IKBKB (inhibitor of nuclear factor kappa B kinase subunit beta)	2	0.997	inactive
33	IKBKB (inhibitor of nuclear factor kappa B kinase subunit beta)	3	0.612	inactive
34	IKBKB (inhibitor of nuclear factor kappa B kinase subunit beta)	4	-0.307	inactive
35	IKBKB (inhibitor of nuclear factor kappa B kinase subunit beta)	5	0.523	inactive
36	IKBKB (inhibitor of nuclear factor kappa B kinase subunit beta)	6	0.328	inactive
37	TLR5 (toll like receptor 5)	1	-3.64	active
38	TLR5 (toll like receptor 5)	2	-1.08	inactive
39	TLR5 (toll like receptor 5)	3	0.0685	inactive
40	TLR5 (toll like receptor 5)	4	-1.07	inactive
41	TLR5 (toll like receptor 5)	5	-2.69	active
42	TLR5 (toll like receptor 5)	6	0.429	inactive
43	MAP3K7 (mitogen-activated protein kinase kinase kinase 7)	1	-1.58	active
44	MAP3K7 (mitogen-activated protein kinase kinase kinase 7)	2	-2.99	active
45	MAP3K7 (mitogen-activated protein kinase kinase kinase 7)	3	-2.84	active
46	MAP3K7 (mitogen-activated protein kinase kinase kinase 7)	4	-1.53	active
47	MAP3K7 (mitogen-activated protein kinase kinase kinase 7)	5	-2.02	active
48	MAP3K7 (mitogen-activated protein kinase kinase kinase 7)	6	-1.3	inactive
49	TRAF6 (TNF receptor associated factor 6)	1	-1.79	active
50	TRAF6 (TNF receptor associated factor 6)	2	-3.16	active
51	TRAF6 (TNF receptor associated factor 6)	3	-2.11	active
52	TRAF6 (TNF receptor associated factor 6)	4	-1.34	inactive
53	TRAF6 (TNF receptor associated factor 6)	5	-1.9	active
54	TRAF6 (TNF receptor associated factor 6)	6	-1.82	active
55	TLR6 (toll like receptor 6)	1	-0.0987	inactive
56	TLR6 (toll like receptor 6)	2	1.33	inactive
57	TLR6 (toll like receptor 6)	3	-0.315	inactive
58	TLR6 (toll like receptor 6)	4	-0.579	inactive
59	TLR6 (toll like receptor 6)	5	-2.13	active
60	TLR6 (toll like receptor 6)	6	-1.6	active
61	ELF4 (E74 like ETS transcription factor 4)	1	-2.27	active
62	ELF4 (E74 like ETS transcription factor 4)	2	-3.4	active
63	ELF4 (E74 like ETS transcription factor 4)	3	-0.965	inactive
64	ELF4 (E74 like ETS transcription factor 4)	4	0.703	inactive
65	ELF4 (E74 like ETS transcription factor 4)	5	-1.29	inactive
66	ELF4 (E74 like ETS transcription factor 4)	6	-1.72	active
67	PTPN6 (protein tyrosine phosphatase non-receptor type 6)	1	-1.37	inactive
68	PTPN6 (protein tyrosine phosphatase non-receptor type 6)	2	0.942	inactive
69	PTPN6 (protein tyrosine phosphatase non-receptor type 6)	3	-0.431	inactive
70	PTPN6 (protein tyrosine phosphatase non-receptor type 6)	4	-1.52	active
71	PTPN6 (protein tyrosine phosphatase non-receptor type 6)	5	-1.45	inactive
72	PTPN6 (protein tyrosine phosphatase non-receptor type 6)	6	-0.301	inactive
73	MAPK13 (mitogen-activated protein kinase 13)	1	-1.27	inactive
74	MAPK13 (mitogen-activated protein kinase 13)	2	-0.65	inactive
75	MAPK13 (mitogen-activated protein kinase 13)	3	-0.84	inactive
76	MAPK13 (mitogen-activated protein kinase 13)	4	-2.05	active
77	MAPK13 (mitogen-activated protein kinase 13)	5	-0.527	inactive
78	MAPK13 (mitogen-activated protein kinase 13)	6	0.0182	inactive
79	IL12B (interleukin 12B)	1	-0.0331	inactive
80	IL12B (interleukin 12B)	2	-0.664	inactive
81	IL12B (interleukin 12B)	3	-1.25	inactive
82	IL12B (interleukin 12B)	4	-1.9	active
83	IL12B (interleukin 12B)	5	-0.137	inactive
84	IL12B (interleukin 12B)	6	-0.935	inactive
85	MAP2K4 (mitogen-activated protein kinase kinase 4)	1	-0.467	inactive
86	MAP2K4 (mitogen-activated protein kinase kinase 4)	2	-0.808	inactive
87	MAP2K4 (mitogen-activated protein kinase kinase 4)	3	0.219	inactive
88	MAP2K4 (mitogen-activated protein kinase kinase 4)	4	0.459	inactive
89	MAP2K4 (mitogen-activated protein kinase kinase 4)	5	0.203	inactive
90	MAP2K4 (mitogen-activated protein kinase kinase 4)	6	-0.334	inactive
91	IL6 (interleukin 6)	1	0.574	inactive
92	IL6 (interleukin 6)	2	-1.05	inactive
93	IL6 (interleukin 6)	3	-0.16	inactive
94	IL6 (interleukin 6)	4	-0.756	inactive
95	IL6 (interleukin 6)	5	-0.458	inactive
96	IL6 (interleukin 6)	6	0.233	inactive
97	MAPKAPK2 (MAPK activated protein kinase 2)	1	-0.367	inactive
98	MAPKAPK2 (MAPK activated protein kinase 2)	2	-0.33	inactive
99	MAPKAPK2 (MAPK activated protein kinase 2)	3	-0.706	inactive
100	MAPKAPK2 (MAPK activated protein kinase 2)	4	-1.13	inactive
101	MAPKAPK2 (MAPK activated protein kinase 2)	5	0.488	inactive
102	MAPKAPK2 (MAPK activated protein kinase 2)	6	-0.529	inactive
103	EGR2 (early growth response 2)	1	-1.25	inactive
104	EGR2 (early growth response 2)	2	-1.06	inactive
105	EGR2 (early growth response 2)	3	0.0466	inactive
106	EGR2 (early growth response 2)	4	-1.31	inactive
107	EGR2 (early growth response 2)	5	-1.16	inactive
108	EGR2 (early growth response 2)	6	-1.5	active
109	TLR4 (toll like receptor 4)	1	-4.47	active
110	TLR4 (toll like receptor 4)	2	-5.76	active
111	TLR4 (toll like receptor 4)	3	-4.76	active
112	TLR4 (toll like receptor 4)	4	-4.5	active
113	TLR4 (toll like receptor 4)	5	-1.2	inactive
114	TLR4 (toll like receptor 4)	6	-3.41	active
115	FOS (Fos proto-oncogene, AP-1 transcription factor subunit)	1	0.251	inactive
116	FOS (Fos proto-oncogene, AP-1 transcription factor subunit)	2	-0.259	inactive
117	FOS (Fos proto-oncogene, AP-1 transcription factor subunit)	3	1.22	inactive
118	FOS (Fos proto-oncogene, AP-1 transcription factor subunit)	4	-0.22	inactive
119	FOS (Fos proto-oncogene, AP-1 transcription factor subunit)	5	1.07	inactive
120	FOS (Fos proto-oncogene, AP-1 transcription factor subunit)	6	2.21	active
121	PTK2B (protein tyrosine kinase 2 beta)	1	-0.994	inactive
122	PTK2B (protein tyrosine kinase 2 beta)	2	-0.862	inactive
123	PTK2B (protein tyrosine kinase 2 beta)	3	0.829	inactive
124	PTK2B (protein tyrosine kinase 2 beta)	4	-0.97	inactive
125	PTK2B (protein tyrosine kinase 2 beta)	5	-1.39	inactive
126	PTK2B (protein tyrosine kinase 2 beta)	6	-1.45	inactive
127	MAPK11 (mitogen-activated protein kinase 11)	1	-0.781	inactive
128	MAPK11 (mitogen-activated protein kinase 11)	2	0.221	inactive
129	MAPK11 (mitogen-activated protein kinase 11)	3	-0.258	inactive
130	MAPK11 (mitogen-activated protein kinase 11)	4	-0.42	inactive
131	MAPK11 (mitogen-activated protein kinase 11)	5	-1.01	inactive
132	MAPK11 (mitogen-activated protein kinase 11)	6	-0.125	inactive
133	LBP (lipopolysaccharide binding protein)	1	-0.499	inactive
134	LBP (lipopolysaccharide binding protein)	2	-0.516	inactive
135	LBP (lipopolysaccharide binding protein)	3	0.152	inactive
136	LBP (lipopolysaccharide binding protein)	4	-0.16	inactive
137	LBP (lipopolysaccharide binding protein)	5	0.511	inactive
138	LBP (lipopolysaccharide binding protein)	6	-2.32	active
139	MAPK3 (mitogen-activated protein kinase 3)	1	-0.419	inactive
140	MAPK3 (mitogen-activated protein kinase 3)	2	-1.28	inactive
141	MAPK3 (mitogen-activated protein kinase 3)	3	-1.04	inactive
142	MAPK3 (mitogen-activated protein kinase 3)	4	0.137	inactive
143	MAPK3 (mitogen-activated protein kinase 3)	5	0.161	inactive
144	MAPK3 (mitogen-activated protein kinase 3)	6	-2	active

No new results follow: entries from further up.
no.	target	siRNA no.	TNF reporter z-score, replicate mean	outcome
86	MAP2K4 (mitogen-activated protein kinase kinase 4)	2	-0.808	inactive
87	MAP2K4 (mitogen-activated protein kinase kinase 4)	3	0.219	inactive
88	MAP2K4 (mitogen-activated protein kinase kinase 4)	4	0.459	inactive
89	MAP2K4 (mitogen-activated protein kinase kinase 4)	5	0.203	inactive
90	MAP2K4 (mitogen-activated protein kinase kinase 4)	6	-0.334	inactive
91	IL6 (interleukin 6)	1	0.574	inactive
92	IL6 (interleukin 6)	2	-1.05	inactive
93	IL6 (interleukin 6)	3	-0.16	inactive
94	IL6 (interleukin 6)	4	-0.756	inactive
95	IL6 (interleukin 6)	5	-0.458	inactive
96	IL6 (interleukin 6)	6	0.233	inactive
97	MAPKAPK2 (MAPK activated protein kinase 2)	1	-0.367	inactive
98	MAPKAPK2 (MAPK activated protein kinase 2)	2	-0.33	inactive
99	MAPKAPK2 (MAPK activated protein kinase 2)	3	-0.706	inactive
100	MAPKAPK2 (MAPK activated protein kinase 2)	4	-1.13	inactive
101	MAPKAPK2 (MAPK activated protein kinase 2)	5	0.488	inactive
102	MAPKAPK2 (MAPK activated protein kinase 2)	6	-0.529	inactive
103	EGR2 (early growth response 2)	1	-1.25	inactive
104	EGR2 (early growth response 2)	2	-1.06	inactive
105	EGR2 (early growth response 2)	3	0.0466	inactive
106	EGR2 (early growth response 2)	4	-1.31	inactive
107	EGR2 (early growth response 2)	5	-1.16	inactive
108	EGR2 (early growth response 2)	6	-1.5	active
